Data published in publication PMC11055677.
These are yes or no findings as the source states them, for the method shown. In cells and extracts the contact can be indirect. Some results given as binding are weak or reduced against the parent protein; the word gives no strength. Where a sequence is shown, tags or fusion partners need not be part of it.

Target: T1, FLAG-HA-CINP wild type, transiently expressed in 293T (human) (UniProt Q9BW66)
T1 sequence: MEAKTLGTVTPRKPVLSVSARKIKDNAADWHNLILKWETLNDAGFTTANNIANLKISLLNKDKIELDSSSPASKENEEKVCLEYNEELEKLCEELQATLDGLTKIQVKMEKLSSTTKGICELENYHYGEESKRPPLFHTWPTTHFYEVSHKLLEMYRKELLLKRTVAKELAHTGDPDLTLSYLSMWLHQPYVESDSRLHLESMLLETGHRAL
Assay: co-IP; FLAG IP (anti-FLAG M2 agarose, 2 h, 4 °C) from whole-cell lysates of 293T transiently expressing the FLAG-HA bait; 100 mM NaCl, 50 mM Tris-HCl pH 7.4, 0.2% NP-40, Benzonase; Western blot

B1: SPATA5 (293T lysate) (enzyme, UniProt Q8NB90 1-893)
chain: MSSKKNRKRLNQSAENGSSLPSAASSCAEARAPSAGSDFAATSGTLTVTNLLEKVDDKIPKTFQNSLIHLGLNTMKSANICIGRPVLLTSLNGKQEVYTAWPMAGFPGGKVGLSEMAQKNVGVRPGDAIQVQPLVGAVLQAEEMDVALSDKDMEINEEELTGCILRKLDGKIVLPGNFLYCTFYGRPYKLQVLRVKGADGMILGGPQSDSDTDAQRMAFEQSSMETSSLELSLQLSQLDLEDTQIPTSRSTPYKPIDDRITNKASDVLLDVTQSPGDGSGLMLEEVTGLKCNFESAREGNEQLTEEERLLKFSIGAKCNTDTFYFISSTTRVNFTEIDKNSKEQDNQFKVTYDMIGGLSSQLKAIREIIELPLKQPELFKSYGIPAPRGVLLYGPPGTGKTMIARAVANEVGAYVSVINGPEIISKFYGETEAKLRQIFAEATLRHPSIIFIDELDALCPKREGAQNEVEKRVVASLLTLMDGIGSEVSEGQVLVLGATNRPHALDAALRRPGRFDKEIEIGVPNAQDRLDILQKLLRRVPHLLTEAELLQLANSAHGYVGADLKVLCNEAGLCALRRILKKQPNLPDVKVAGLVKITLKDFLQAMNDIRPSAMREIAIDVPNVSWSDIGGLESIKLKLEQAVEWPLKHPESFIRMGIQPPKGVLLYGPPGCSKTMIAKALANESGLNFLAIKGPELMNKYVGESERAVRETFRKARAVAPSIIFFDELDALAVERGSSLGAGNVADRVLAQLLTEMDGIEQLKDVTILAATNRPDRIDKALMRPGRIDRIIYVPLPDAATRREIFKLQFHSMPVSNEVDLDELILQTDAYSGAEIVAVCREAALLALEEDIQANLIMKRHFTQALSTVTPRIPESLRRFYEDYQEKSGLHTL
With B1 as the binder, how does the binding read?
The binding was “binds”.

B2: SPATA5L1 (293T lysate) (enzyme, UniProt Q9BVQ7 1-753)
chain: MAPDSDPFPEGPLLKLLPLDARDRGTQRCRLGPAALHALGARLGSAVKISLPDGGSCLCTAWPRRDGADGFVQLDPLCASPGAAVGASRSRRSLSLNRLLLVPCPPLRRVAVWPVLRERAGAPGARNTAAVLEAAQELLRNRPISLGHVVVAPPGAPGLVAALHIVGGTPSPDPAGLVTPRTRVSLGGEPPSEAQPQPEVPLGGLSEAADSLRELLRLPLRYPRALTALGLAVPRGVLLAGPPGVGKTQLVRAVAREAGAELLAVSAPALQGSRPGETEENVRRVFQRARELASRGPSLLFLDEMDALCPQRGSRAPESRVVAQVLTLLDGASGDREVVVVGATNRPDALDPALRRPGRFDREVVIGTPTLKQRKEILQVITSKMPISSHVDLGLLAEMTVGYVGADLTALCREAAMHALLHSEKNQDNPVIDEIDFLEAFKNIQPSSFRSVIGLMDIKPVDWEEIGGLEDVKLKLKQSIEWPLKFPWEFVRMGLTQPKGVLLYGPPGCAKTTLVRALATSCHCSFVSVSGADLFSPFVGDSEKVLSQIFRQARASTPAILFLDEIDSILGARSASKTGCDVQERVLSVLLNELDGVGLKTIERRGSKSSQQEFQEVFNRSVMIIAATNRPDVLDTALLRPGRLDKIIYIPPPDHKGRLSILKVCTKTMPIGPDVSLENLAAETCFFSGADLRNLCTEAALLALQENGLDATTVKQEHFLKSLKTVKPSLSCKDLALYENLFKKEGFSNVEGI
B2 was tested. Which binding did it give?
Its binding is “binds”.
